Results on one compound are retold here after article PMC11796312, “Multifunctional, Fluorene‐Based Modulator of Cholinergic and GABAergic Neurotransmission as a Novel Drug Candidate for Palliative Treatment of Alzheimer's Disease” (Angewandte Chemie (International Ed. in English), 2024).

Protein sequences, listed by entry. Tags and fused reporters are not part of them.
UniProt P50406, whole entry: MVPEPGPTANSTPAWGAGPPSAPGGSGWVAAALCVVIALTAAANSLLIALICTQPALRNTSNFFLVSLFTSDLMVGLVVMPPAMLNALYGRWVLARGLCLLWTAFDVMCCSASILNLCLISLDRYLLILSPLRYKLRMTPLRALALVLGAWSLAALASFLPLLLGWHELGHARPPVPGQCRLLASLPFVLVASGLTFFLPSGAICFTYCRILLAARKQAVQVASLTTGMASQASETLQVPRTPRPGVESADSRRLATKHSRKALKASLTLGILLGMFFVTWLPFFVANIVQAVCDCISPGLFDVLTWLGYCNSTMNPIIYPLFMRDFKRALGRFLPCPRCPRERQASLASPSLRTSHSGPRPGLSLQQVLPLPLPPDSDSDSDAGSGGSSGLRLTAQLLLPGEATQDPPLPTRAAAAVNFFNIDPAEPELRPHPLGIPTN

The target in this assay is T1, human serotonin 5-HT6 receptor (Homo sapiens, UniProt P50406).
T1 construct: host or cells: 1321N1
The assay is described as follows: cAMP 5-HT6 functional assay. Format: cell-based.

For the compound `COc1ccc(NS(=O)(=O)c2ccc(I)cc2)cc1N1CCN(C)CC1` [SB258585, reference compound], the “5-HT6 antagonist mode pKb ± SEM” value is reported as 8.69±0.005.
